Reference: patent publication US10508126B2, “Bisphosphonates vinylic monomers and polymers and uses thereof” (BAR-ILAN UNIVERSITY, priority 2012, dated 2019)

Experiment: Inhibition of HAP dissolution (calcium in supernatant by ICP)
Type: physicochemical
Settings: compound 1 mM; supersaturated calcium phosphate, 0.05 M Tris pH 7.4, 37° C., 24 h
Protocol: As a result, HAP affinity tests are the most common in vitro tests for bone-seeking properties of new compounds. The current, novel, BP-containing monomers and nanoparticles were assayed for inhibition of HAP dissolution, in comparison to alendronate.
The test based on a slightly modified method of Francis et al. (Francis, M. D. The inhibition of calcium hydroxyapatite crystal growth by polyphosphonates and polyphosphates. Calcif Tissue Res 1969, 3, 151-162). The extent of HAP formation in the presence of inhibitors was studied in supersaturated calcium phosphate solutions.
The final concentration of calcium (CaCl2.2H2O) and phosphate (K2HPO4) ions in the incubation solutions was 3.87 mM and 2.32 mM, respectively, yielding a molar ratio of [Ca]/[PO4]=1.67, as in hydroxyapatite (HAP). Each salt solution was prepared in 0.05 M Tris buffer, pH 7.4. The tested BP compound (1 mM) was dissolved in […]. 5 ml of 7.74 mM CaCl2.2H2O solution containing the BP compound and 5 ml of the 4.64 mM K2HPO4 were mixed in borosilicate glass vials (acid and acetone washed). The vials were then placed in a shaker at 37° C. for 24 h. The vials contents were centrifuged (4 min, 4000 rpm) and the supernatants were then separated and analyzed for calcium concentration by ICP Analysis.

NCCCC(O)(P(=O)(O)O)P(=O)(O)O [Alendronate, reference compound]
Calcium ions concentration in filtrate (% of initial concentration): 35 % of initial concentration
